Source: PMC9333443, “Structural insights into Pot1-ssDNA, Pot1-Tpz1 and Tpz1-Ccq1 Interactions within fission yeast shelterin complex” (PLoS Genetics, 2022)
Results are given in words; binding and its absence hold for the method and conditions named. Some entries that bind do so weakly or less than the wild type. Tags and fused reporters may be left off the sequences shown.

Target: Ccq1 full length, two-hybrid fusion (S. pombe) (UniProt Q10432)
Assay: two-hybrid; L40 strain with pBTM116 and pACT2 fusion plasmids; liquid β-galactosidase assay, normalised to the wild-type interaction set to 100

binding: binds
B1: Ccq1 full length, two-hybrid fusion (protein, UniProt Q10432 1-735)
chain: MSEINDFTNSIIINESDTKYEVYSEVNSSNRWIAKEDCPSPLEDVWLLKLAGHKRKLEEPLSCMRNEEPASKQREIEKFLRTDLDHSENDFLTQEVDEFPSTQQLFPIPLQNDTAFDSSEESITKSSKSSFSVLDIGLPMSALQRKMMHRLVQYFAFCIDHFCTGPSDSRIQEKIRLFIQSAHNIAKHPSLYDTEVRNPSAAESTNSHVSLDASNFSSYAENSSKFLFLQELFKNLSPSYSKTFFLFISNQFLANTLTQWLKSQNIDAELWAEEDAKTSQHPAIWICVSKKAPSASHFLQSCPDLSATIFYDIEAYMSVTSSLPSIQSLVLRLIHLGSIEHAIKCFQSSYNASFLVNIVGVVATLSSSSEENSEASNLSTLFEKSGNFEEILGSESHSSITEKTRDIAKNVATWLKNGENFSSWPLPPLMDLASLSVAEPRDSQPSVSQVNDTFVKSSDSTFPSSQSMQSPSKLHSLTSNATDLLSSSSLKKNFFSQQEADEVELSNNYDLQGAAVQYLQRRLRMVEDELHEAINSKNVQQSRSEELEQQISKLTDNLQEYRNTVRELKLDLEKSKKKNEDLSKLEVEKVEEIANLKKELTHLAKQQEFGFKYVQEFSNEDLQGKLIEANEKNYKLTQLLKTQKEDADFITNQYQNASTFAAEQSKEVAKLQAECKRLQAINSKVMEEVKVYNDSRVEALLAKVSSLEETLKILEQKSLPKFTPHNQSPRIIDSN
